Measured data: PubChem BioAssay AID652272 (Drosophila RNAi Screening Center, 2013)
In all, the deposit lists about 21,000 reagents; shown is a random part of those that have a named target and a result. Of all reagents, 503 (2.4%) are marked active. 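Raw plate light values, not normalised; calls rest on replicate z-scores that were not deposited; hits include reporter decreases as well as increases.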 No sequences are given here. The record does not give: the amount of reagent, the time to read-out.

Assay: 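Finding fly genes that regulate Hedgehog signal transduction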 (primary screen)
Cells: Drosophila clone 8 (Cl8) cells
Knock-down reagent: long dsRNA against Drosophila genes
Read-out: 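Firefly light from a Hedgehog-responsive ptc promoter reporter and Renilla reference light, both read on a plate reader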
Reading the numbers: firefly Hh reporter signal: higher = more ptc reporter light; Renilla reference signal: higher = more Renilla control light
Rule for the call: 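Hit when the z-score averaged over two replicates is under -2 or over +3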
Meaning of the calls: active = hit: reporter lowered or raised; inactive = not a hit

Or88a [DRSC16770] — firefly Hh reporter signal, replicate 1: 75066; firefly Hh reporter signal, replicate 2: 75729; Renilla reference signal, replicate 1: 1821; Renilla reference signal, replicate 2: 1660; Call: inactive
Gabat [DRSC10846] — firefly Hh reporter signal, replicate 1: 97600; firefly Hh reporter signal, replicate 2: 1.19e5; Renilla reference signal, replicate 1: 3072; Renilla reference signal, replicate 2: 2937; Call: inactive
CG3618 [DRSC11746] — firefly Hh reporter signal, replicate 1: 67645; firefly Hh reporter signal, replicate 2: 48339; Renilla reference signal, replicate 1: 2843; Renilla reference signal, replicate 2: 1973; Call: inactive
smg [DRSC11397] — firefly Hh reporter signal, replicate 1: 85168; firefly Hh reporter signal, replicate 2: 27847; Renilla reference signal, replicate 1: 3801; Renilla reference signal, replicate 2: 1269; Call: inactive
robl37BC [DRSC02472] — firefly Hh reporter signal, replicate 1: 98752; firefly Hh reporter signal, replicate 2: 70754; Renilla reference signal, replicate 1: 2736; Renilla reference signal, replicate 2: 5813; Call: inactive
Cpr64Aa [DRSC08460] — firefly Hh reporter signal, replicate 1: 71520; firefly Hh reporter signal, replicate 2: 50955; Renilla reference signal, replicate 1: 2072; Renilla reference signal, replicate 2: 3698; Call: inactive
CG32266 [DRSC08062] — firefly Hh reporter signal, replicate 1: 95288; firefly Hh reporter signal, replicate 2: 2.31e5; Renilla reference signal, replicate 1: 3001; Renilla reference signal, replicate 2: 10089; Call: inactive
CG31195 [DRSC13440] — firefly Hh reporter signal, replicate 1: 52842; firefly Hh reporter signal, replicate 2: 1.36e5; Renilla reference signal, replicate 1: 11621; Renilla reference signal, replicate 2: 2871; Call: inactive

Next part (2 carried over from the part before).
CG32266 [DRSC08062] — firefly Hh reporter signal, replicate 1: 95288; firefly Hh reporter signal, replicate 2: 2.31e5; Renilla reference signal, replicate 1: 3001; Renilla reference signal, replicate 2: 10089; Call: inactive
CG31195 [DRSC13440] — firefly Hh reporter signal, replicate 1: 52842; firefly Hh reporter signal, replicate 2: 1.36e5; Renilla reference signal, replicate 1: 11621; Renilla reference signal, replicate 2: 2871; Call: inactive
Rpn12 [DRSC11275] — firefly Hh reporter signal, replicate 1: 31735; Renilla reference signal, replicate 1: 3648; Renilla reference signal, replicate 2: 2151; Call: active
CG5023 [DRSC15697] — firefly Hh reporter signal, replicate 1: 5.42e5; firefly Hh reporter signal, replicate 2: 86022; Renilla reference signal, replicate 1: 29328; Renilla reference signal, replicate 2: 2373; Call: inactive
CG6051 [DRSC15956] — firefly Hh reporter signal, replicate 1: 1.39e5; firefly Hh reporter signal, replicate 2: 86198; Renilla reference signal, replicate 1: 3303; Renilla reference signal, replicate 2: 1850; Call: inactive
FoxP [DRSC15159] — firefly Hh reporter signal, replicate 1: 77365; firefly Hh reporter signal, replicate 2: 1.35e5; Renilla reference signal, replicate 1: 2135; Renilla reference signal, replicate 2: 3296; Call: inactive
lama [DRSC11361] — firefly Hh reporter signal, replicate 1: 1.05e5; firefly Hh reporter signal, replicate 2: 33501; Renilla reference signal, replicate 1: 4448; Renilla reference signal, replicate 2: 1458; Call: inactive
ppk26 [DRSC10991] — firefly Hh reporter signal, replicate 1: 51584; firefly Hh reporter signal, replicate 2: 40732; Renilla reference signal, replicate 1: 5284; Renilla reference signal, replicate 2: 2740; Call: inactive
